In patent US7964369:

Target: Ras-GRF1-Myc
Test: co-immunoprecipitation from 293 cells co-transfected with GRAIL, USP8 and Ras-GRF1

B1: HA-USP8 (enzyme, mouse, UniProt Q80U87 1-1080, looked up, not shown: small tags and cut ends)
chain: MPAVASVPKELYLSSSLKDLNKKTEVKPEKTSTKNYIHSAQKIFKTAEECRLDRDEERAYVLYMKYVAVYNLIKKRPDFKQQQDYYLSILGPANIKKAIEEAERLSESLKLRYEEAEVRKQLEEKDRREEEQLQQQKRQEMGREDSGAAAKRSVENLLDSKTKTQRINGEKSEGAAAAERGAITAKELYTMMMDKNTSLIIMDARKIQDYQHSCILDSLSVPEEAISPGVTASWIEANLSDDSKDTWKKRGSVDYVVLLDWFSSAKDLLLGTTLRSLKDALFKWESKTVLRHEPLVLEGGYENWLLCYPQFTTNAKVTPPPRSRAEEVSVSLDFTYPSLEEPVPSKLPTQMPPPPIETNEKALLVTDQDEKLRLSTQPALAGPGAAPRAEASPIIQPAPATKSVPQVDRTKKPSVKLPEDHRIKSENTDQSGRVLSDRSTKPVFPSPTTMLTDEEKARIHQETALLMEKNKQEKELWDKQQKEQKEKLRREEQERKAGKTQDADERDSTENQHKAKDGQEKKDSKQTKTEDRELSADGAQEATGTQRQSKSEHEASDAKVPVEGKRCPTSEAQKRPADVSPASVSGELNAGKAQREPLTRARSEEMGRIVPGLPLGWAKFLDPITGTFRYYHSPTNTVHMYPPEMAPSSAPPSTPPTHKVKPQVPAERDREPSKLKRSYSSPDITQALQEEEKRRPAVTPMVNRENKPPCYPKAEISRLSASQIRNLNPVFGGSGPALTGLRNLGNTCYMNSILQCLCNAPHLADYFNRNCYQDDINRSNLLGHKGEVAEEFGIIMKALWTGQYRYISPKDFKVTIGKINDQFAGSSQQDSQELLLFLMDGLHEDLNKADNRKRHKEENNEHLDDLQAAEHAWQKHKQLNESIIVALFQGQFKSTVQCLTCRRRSRTFEAFMYLSLPLASTSKCTLQDCLRLFSKEEKLTDNNRFYCSHCRARRDSLKKIEIWKLPPVLLVHLKRFSYDGRWKQKLQTSVDFPLENLDLSQYVIGPKNSLKKYNLFSVSNHYGGLDGGHYTAYCKNAARQRWFKFDDHEVSDISVSSVRSSAAYILFYTSLGPRITDVAT
For B1, the binding was “binds”.

Results are given in words; binding and its absence hold for the method and conditions named. In cells and extracts the contact can be indirect. Binding calls can cover weak binding; strength is not graded here. Tags and fused reporters may be left off the sequences shown.
